Laboratory results reported in publication PMC3566133, “Molecular Analysis of the Prostacyclin Receptor’s Interaction with the PDZ1 Domain of Its Adaptor Protein PDZK1” (PLoS ONE, 2013).
These are yes or no findings as the source states them, for the method shown.

Molecular target: T1, recombinant protein corresponding to PDZ domain 1 (PDZ1) of PDZK1 (mouse)
T1 sequence (Q9JIL4 whole entry, looked up): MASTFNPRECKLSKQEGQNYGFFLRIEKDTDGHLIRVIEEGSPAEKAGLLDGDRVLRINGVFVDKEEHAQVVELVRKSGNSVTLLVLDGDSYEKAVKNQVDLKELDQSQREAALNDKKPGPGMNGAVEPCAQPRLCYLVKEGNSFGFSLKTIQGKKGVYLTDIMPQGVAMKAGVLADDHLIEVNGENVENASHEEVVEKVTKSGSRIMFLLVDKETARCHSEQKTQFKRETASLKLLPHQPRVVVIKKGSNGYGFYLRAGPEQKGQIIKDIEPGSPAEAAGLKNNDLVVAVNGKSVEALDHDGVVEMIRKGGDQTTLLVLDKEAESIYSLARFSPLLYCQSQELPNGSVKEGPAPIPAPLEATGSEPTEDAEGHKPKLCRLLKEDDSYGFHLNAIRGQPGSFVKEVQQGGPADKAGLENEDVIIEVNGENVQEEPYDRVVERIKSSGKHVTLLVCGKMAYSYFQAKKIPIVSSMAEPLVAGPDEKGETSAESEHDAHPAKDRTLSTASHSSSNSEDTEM
Assay: condition: 1.0 mM peptide titrated against 0.03 mM protein; ITC; 1.0 mM peptide injected in 10 µl aliquots into 0.03 mM PDZ1 or full length PDZK1 in the cell; 150 mM NaCl, 25 mM Tris pH 8.0, 0.5 mM TCEP, 20°C; VP-ITC; both purified

KSEAIAAC [Peptide 2 (K407SEAIAAC414), carboxy-terminus of IP devoid of the three terminal amino acids SLC] was tested, and the binding was “no binding”.
